The nature of this test: qHTS Assay for Lipid Storage Modulators in Drosophila S3 Cells.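 As to cell number change: cells counted by Cell Tracker Red CMTPX staining in the red channel.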 The following applies: BODIPY lipid droplet fluorescence, 18-24 h; for cell number change: measured here: cell count max response, cells fed with added oleic acid. Summed up: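 Laser-scanning cytometry quantifies lipid droplet accumulation (500–530 nm total intensity; droplet/cell object ratio) in oleic acid-fed (400 uM added) Drosophila S3 cells treated with a concentration series. 20 uM Triacsin C defined 100% inhibition.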
A general note: Quantitative high-throughput screening tests each substance at several concentrations.

Where [1] appears, read: measured here: lipid fluorescence (Fed channel) AC50, cells fed with added oleic acid.
[2] abbreviates: measured here: cell number channel AC50, cells fed with added oleic acid.

SMILES strings stand for the structures. The list shows a part of the results. The main result of the screen is listed elsewhere. These columns were measured beside it and carry no call. Compounds called inactive in the main read-out are mostly missing here. Words in brackets tell the shape of the fitted curve; partial curves, single points and poor fits give uncertain potencies.

One may read the AC50 as the concentration giving half of the maximal activity seen. A high value points to activity only at high concentration. In the case of `CC1Cc2nc(SCC(=O)N3CCOCC3)n(C)c(=O)c2S1` (centres undefined), the cell number change amounted to 19.4%. Under setting [1], the AC50 is 29.1 µM [rising, single point]. Consider `Cc1ccc(NC(=O)c2sc3nc(CCl)[nH]c(=O)c3c2C)c(C)c1`, for which the cell number change came to 28%. For the same molecule, the AC50 under setting [2] was 0.082 µM [rising, full curve, poor fit]. In addition, under setting [1], the AC50 is 0.058 µM [rising, full curve, poor fit].

Turning to `O=c1oc2cc(OCc3ccc(F)cc3F)ccc2cc1-c1ccc2ccccc2n1`, the cell number change turned out to be 36.6%. Moreover, the AC50 under setting [2] was 14.6 µM [rising, partial curve, poor fit]. The AC50 under setting [1] is 23.1 µM [rising, partial curve, poor fit]. Consider `Cc1cc(C)nc(NS(=O)(=O)c2ccc(NC(=O)CSc3ncn[nH]3)cc2)n1`, for which the cell number change is 3.82%. Further, the concentration at half-maximal activity (AC50) under setting [1] was 4.11 µM [rising, single point].

`O=C(CCn1c(SCC(=O)c2ccccc2)nc2ccccc2c1=O)NCc1ccc(F)cc1`: the cell number change was determined as 12.1%. With `COc1ccc(CCNc2nnc(Sc3nnnn3-c3ccccc3)s2)cc1OC`, under setting [1], the AC50 was 29.1 µM [falling, single point]. Turning to `Cc1cccc(N2CCN(C(=O)CCS(=O)(=O)c3ccc4c(c3)NC(=O)CO4)CC2)c1C`, the cell number change came out at 20.6%. Moreover, the AC50 under setting [2] was 0.82 µM [rising, full curve, poor fit]. For `CC(C)CN(C(=O)c1ccco1)c1nc2ccccc2s1`, the cell number change was -103%. Besides, the AC50 under setting [2] is 29.1 µM [falling, single point]. The half-maximal activity concentration (AC50) under setting [1] was 29.1 µM [falling, single point]. Take `O=[N+]([O-])c1ccc(N2CCN(C(=S)c3cccc([N+](=O)[O-])c3)CC2)cc1`: the cell number change was -5.26%. Besides, the AC50 under setting [1] was 16.4 µM [rising, single point].

Regarding `Cc1ccc(Cl)cc1NC(=O)c1ccc(CSc2nnnn2C)cc1`, the AC50 is, setting by setting: under setting [2], 0.0164 µM [rising, full curve]; under setting [1], 0.731 µM [rising, partial curve, poor fit]. Turning to `COc1ccc([N+](=O)[O-])cc1NC(=O)C(C)OC(=O)CN1C(=O)C2CC=CCC2C1=O` (centres undefined), the cell number change was -4.42%. As to `CC1C=CCC2C(=O)N(c3ccc(Cl)cc3O)C(=O)C12` (centres undefined), the cell number change was -11.9%. Moreover, the AC50 under setting [1] was 29.1 µM [falling, single point].

Take `N#C/C(=C\c1ccc(O)c(O)c1)C(=O)Nc1ccccc1`: the cell number change is -12.9%. Under setting [1], the AC50 is 14.6 µM [falling, partial curve, poor fit].

As to `Cc1ccccc1NC(=O)COc1nsnc1N1CCOCC1`, the cell number change was 7.99%.

Take `Cc1ccc(C(=O)Nc2ccc(C(=O)N/N=C/c3ccccn3)cc2)cc1`: the cell number change was 40.4%. Also, under setting [2], the AC50 was 16.4 µM [rising, partial curve, poor fit]. In the case of `CCn1c(CNC(=O)Cc2ccc(OC)cc2)nnc1SCC(=O)NC1CCCCC1`, the cell number change was -17.8%. In addition, the AC50 under setting [1] is 0.146 µM [falling, full curve]. On to `CC(=O)Nc1ccc(-c2nnc(SCc3ccccc3C#N)n2C)cc1`, for which the cell number change turned out to be 20.4%. The AC50 under setting [1] is 23.1 µM [rising, partial curve]. Consider `Cc1ccc(C)c(CSc2nnc(-c3cccnc3)o2)c1`, for which the cell number change was -8.34%. Also, under setting [1], the AC50 is 0.461 µM [rising, full curve, poor fit]. Turning to `CCn1ncc(C2=NOC(C(=O)Nc3cccc(C(C)=O)c3)C2)c1C` (centres undefined), the cell number change is -14.8%. Moreover, the AC50 under setting [2] was 3.66 µM [falling, single point]. Besides, under setting [1], the AC50 is 4.11 µM [falling, single point]. Regarding `C/C(=N\NC(=S)NC(C)C)c1ccc(C(C)(C)C)cc1`, the cell number change was -35%. Besides, the concentration at half-maximal activity (AC50) under setting [2] was 29.1 µM [falling, single point].

Turning to `Cc1ccc(Cn2c(=O)oc3ccccc32)cc1`, the AC50 under setting [2] was 5.8 µM [rising, partial curve]. Take `O=C(NCCCCCNC(=O)c1ccco1)c1ccco1`: the AC50 under setting [1] was 3.26 µM [falling, partial curve, poor fit]. On to `O=C(Cc1c[nH]c2ccccc12)N1CCc2ccccc21`, for which the AC50 under setting [2] was 1.16 µM [rising, full curve]. On to `COC(=O)[C@H](Cc1ccccc1)NC(=O)N1CC(C)OC(C)C1` (some centres undefined), for which the cell number change is -55.9%. Further, the AC50 under setting [2] was 29.1 µM [falling, single point]. Besides, under setting [1], the AC50 is 1.3 µM [falling, full curve]. As to `O=C(O)c1cccn1Cc1ccccc1F`, the cell number change is -34.3%. Consider `O=C(COC(=O)c1cccc(Br)c1)NCCc1ccc(F)cc1`, for which the cell number change is -7.68%. Under setting [1], the AC50 was 18.4 µM [rising, partial curve]. On to `O=C(CCCN1C(=O)c2cccc3cccc(c23)C1=O)N1CCN(c2ncccn2)CC1`, for which the cell number change was -10.5%. Besides, the AC50 under setting [1] was 29.1 µM [falling, single point]. Take `O=C(NCC1CCCO1)c1ccc(CNS(=O)(=O)c2cccc(Cl)c2)cc1` (centres undefined): the cell number change is 15.2%. On to `COc1ccc(NC(=O)c2cc3c(=O)n(C)c4ccccc4c3n2C)cc1Cl`, for which the AC50 under setting [1] was 0.164 µM [rising, full curve, poor fit]. Consider `COc1ccc2[nH]cc(CCNC(=S)NC3CCCC3)c2c1`, for which the cell number change is -1.85%. In addition, the AC50 under setting [2] is 6.51 µM [falling, single point]. Further, the AC50 under setting [1] is 0.461 µM [falling, full curve].

For the molecule `O=C(CN1C(=O)C2C3C=CC(C3)C2C1=O)OCC(=O)c1ccccc1` (centres undefined), the cell number change was -7.66%. Consider `COCc1nnc(NS(=O)(=O)c2ccc(Cl)cc2)s1`, for which the cell number change came to 31.2%. In addition, under setting [1], the half-maximal activity concentration (AC50) is 29.1 µM [rising, single point]. `COc1ccccc1NC(=O)Cn1cnc2c(oc3ccccc32)c1=O`: the cell number change amounted to 29.7%. Moreover, under setting [1], the AC50 was 6.51 µM [rising, partial curve]. Turning to `COC(=O)c1ccc(COc2ccccc2/C=N/Nc2cccc(C(=O)O)c2)cc1`, the cell number change stood at 24.4%. For the same molecule, the AC50 under setting [1] is 2.06 µM [rising, single point]. For the molecule `O=C(COC(=O)c1ccc(S(=O)(=O)NCc2ccco2)cc1)Nc1ccccc1`, the cell number change is -14.3%. In addition, the AC50 under setting [1] was 23.1 µM [rising, partial curve]. Turning to `O=C(CCCCCn1c(=S)[nH]c2ccc(N3CCOCC3)cc2c1=O)NCc1ccccc1`, the cell number change was determined as 62.1%. Besides, the AC50 under setting [2] is 29.1 µM [rising, single point].

In the case of `O=C(NCc1ccc(Cl)cc1)C1=Cc2cc(Cl)ccc2OC1`, the cell number change turned out to be 71.2%. Also, under setting [2], the AC50 is 29.1 µM [rising, single point]. Further, the AC50 under setting [1] was 0.651 µM [falling, single point].

As for `CCN(CC)C(=O)C1c2ccccc2Oc2ccccc21`, the cell number change is -24.7%. The same measure, in the same setting: to `CC(C)NC(=O)c1cccc(Br)c1` belongs 23.5%.

Consider `CCSC1=C(C#N)C(c2ccc(F)cc2)CC(=O)N1` (centres undefined), for which the cell number change is 7.6%. Besides, the AC50 under setting [1] was 2.06 µM [falling, partial curve, poor fit].

The record behind these values is PubChem BioAssay AID2685 (National Center for Advancing Translational Sciences (NCATS), 2010).
